For at least one entry, the source does not settle the construct or the ends of the probe. For part of these data: No signal at the amounts used counts as a negative. For part of these data: At least one verdict was read from the data and is not stated in words by the source. For part of these data: Tags and fusion partners may be left off the protein sequences shown. For part of these data: A weaker result is weaker than the reference pair of the same experiment.
Key:
Assay in all cases: EMSA
[1] = molecular target: T1, 6xHis-MBD6 MBD (Homo sapiens) (UniProt Q96DN6); conditions: 1 nM probe, 1 uM protein, 20 min at 25 C, 50 mM Tris-HCl pH 8, 1 mM EDTA, 1 mM DTT, 1 mM PMSF, 6% PAGE in 0.5x TBE at 4 C, recombinant protein, residues 1-93, protein details: 6xHis (N-terminal), label: FAM
T1 sequence (looked up): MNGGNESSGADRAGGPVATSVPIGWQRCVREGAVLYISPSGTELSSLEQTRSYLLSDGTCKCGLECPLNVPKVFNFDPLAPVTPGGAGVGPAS

By UniProt entry, the sequences of proteins in these tests, tags left out. Where a name states a change or a piece, a line headed by the entry shows the natural chain unless it says otherwise. Residues count along the entry.
UniProt P51608, 77-164: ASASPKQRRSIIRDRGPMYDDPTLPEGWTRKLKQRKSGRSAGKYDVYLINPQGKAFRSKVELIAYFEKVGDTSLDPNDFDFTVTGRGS
UniProt Q9P1Z0: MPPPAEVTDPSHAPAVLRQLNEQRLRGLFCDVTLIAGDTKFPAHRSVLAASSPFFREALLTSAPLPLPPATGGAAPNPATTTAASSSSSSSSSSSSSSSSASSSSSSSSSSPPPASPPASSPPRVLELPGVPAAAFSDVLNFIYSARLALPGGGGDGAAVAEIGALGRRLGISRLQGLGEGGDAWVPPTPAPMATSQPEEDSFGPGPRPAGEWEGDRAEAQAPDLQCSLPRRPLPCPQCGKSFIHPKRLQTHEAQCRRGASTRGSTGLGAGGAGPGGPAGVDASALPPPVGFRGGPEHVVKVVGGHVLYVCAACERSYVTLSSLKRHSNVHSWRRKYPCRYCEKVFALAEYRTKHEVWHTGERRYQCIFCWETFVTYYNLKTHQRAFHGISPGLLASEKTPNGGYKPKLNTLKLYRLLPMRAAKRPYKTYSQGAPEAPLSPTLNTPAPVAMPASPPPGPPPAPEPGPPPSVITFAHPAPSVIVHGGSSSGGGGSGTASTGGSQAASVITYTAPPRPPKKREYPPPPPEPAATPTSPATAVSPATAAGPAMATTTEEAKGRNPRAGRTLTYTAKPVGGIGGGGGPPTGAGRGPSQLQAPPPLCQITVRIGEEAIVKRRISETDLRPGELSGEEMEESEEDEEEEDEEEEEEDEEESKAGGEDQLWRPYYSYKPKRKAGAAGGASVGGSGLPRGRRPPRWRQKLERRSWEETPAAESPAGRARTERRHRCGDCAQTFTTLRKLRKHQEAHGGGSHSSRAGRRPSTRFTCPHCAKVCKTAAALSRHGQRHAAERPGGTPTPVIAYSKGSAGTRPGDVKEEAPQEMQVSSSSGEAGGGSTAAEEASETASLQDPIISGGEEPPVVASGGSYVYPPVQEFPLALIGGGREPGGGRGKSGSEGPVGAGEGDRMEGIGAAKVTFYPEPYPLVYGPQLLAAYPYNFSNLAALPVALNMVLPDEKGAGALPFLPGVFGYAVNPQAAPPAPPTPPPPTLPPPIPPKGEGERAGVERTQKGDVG

[2] = molecular target: 6xHis-MeCP2 MBD (Homo sapiens) (UniProt P51608); conditions: 1 nM probe, 1 uM protein, 20 min at 25 C, 50 mM Tris-HCl pH 8, 1 mM EDTA, 1 mM DTT, 1 mM PMSF, 5% glycerol, 6% PAGE in 0.5x TBE at 4 C, recombinant protein, residues 77-164, protein details: 6xHis (N-terminal), label: FAM
[3] = molecular target: T2, 6xHis-MBD5 MBD (Homo sapiens) (UniProt Q9P267); conditions: 1 nM probe, 1 uM protein, 20 min at 25 C, 50 mM Tris-HCl pH 8, 1 mM EDTA, 1 mM DTT, 1 mM PMSF, 6% PAGE in 0.5x TBE at 4 C, recombinant protein, residues 1-93, protein details: 6xHis (N-terminal), label: FAM
T2 sequence (looked up): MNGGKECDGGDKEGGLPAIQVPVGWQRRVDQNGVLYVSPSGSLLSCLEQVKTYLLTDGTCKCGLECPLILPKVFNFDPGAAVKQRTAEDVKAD

[4] = molecular target: T3, GST-MBD6 MBD (Homo sapiens) (UniProt Q96DN6); conditions: 1 ug poly(dI-dC); 5-methylcytosine at the single CpG; 1 nM probe, 1 uM protein, 20 min at 25 C; 50 mM Tris-HCl pH 8, 1 mM EDTA, 1 mM DTT, 1 mM PMSF, 5% …; 6% PAGE in 0.5x TBE at 4 C; recombinant protein; residues 1-93; protein details: GST; label: radiolabel
T3 sequence (looked up): T1 sequence (looked up)

GST-ZBTB4 zinc fingers = GST-ZBTB4 zinc fingers (UniProt Q9P1Z0); conditions: 1 ug poly(dI-dC); 5-methylcytosine at the single CpG; 1 nM probe, 1 uM protein, 20 min at 25 C; 50 mM Tris-HCl pH 8, 1 mM EDTA, 1 mM DTT, 1 mM PMSF, 5% …; 6% PAGE in 0.5x TBE at 4 C; recombinant protein; protein details: GST; label: radiolabel
[5] = molecular target: GST-MBD5 MBD (larger region) (Homo sapiens) (UniProt Q9P267); conditions: 1 ug poly(dI-dC); 5-methylcytosine at the single CpG; 1 nM probe, 1 uM protein, 20 min at 25 C; 50 mM Tris-HCl pH 8, 1 mM EDTA, 1 mM DTT, 1 mM PMSF, 5% …; 6% PAGE in 0.5x TBE at 4 C; recombinant protein; protein details: GST; label: radiolabel
[6] = molecular target: T4, MBP-MBD6 MBD (Homo sapiens) (UniProt Q96DN6); conditions: 1 ug poly(dA-dC), no significant binding without competitor; 1 nM probe, 1 uM protein, 20 min at 25 C; 50 mM Tris-HCl pH 8, 1 mM EDTA, 1 mM DTT, 1 mM PMSF, 5% glycerol; 6% PAGE in 0.5x TBE at 4 C; recombinant protein; residues 1-93; protein details: MBP; label: FAM
T4 sequence (looked up): T1 sequence (looked up)

[7] = molecular target: MBP-MeCP2 MBD (Homo sapiens) (UniProt P51608); conditions: 1 ug poly(dA-dC), stated as methylation-dependent interaction; 1 nM probe, 1 uM protein, 20 min at 25 C; 50 mM Tris-HCl pH 8, 1 mM EDTA, 1 mM DTT, 1 mM PMSF, 5% glycerol; 6% PAGE in 0.5x TBE at 4 C; recombinant protein; residues 77-164; protein details: MBP; label: FAM
[8] = molecular target: T5, MBP-MBD5 MBD (Homo sapiens) (UniProt Q9P267); conditions: 1 ug poly(dA-dC), no significant binding without competitor; 1 nM probe, 1 uM protein, 20 min at 25 C; 50 mM Tris-HCl pH 8, 1 mM EDTA, 1 mM DTT, 1 mM PMSF, 5% glycerol; 6% PAGE in 0.5x TBE at 4 C; recombinant protein; residues 1-93; protein details: MBP; label: FAM
T5 sequence (looked up): T2 sequence (looked up)

[9] = limited poly(dA-dC) (500 ng per Methods), 5% glycerol
[10] = 1 ug poly(dA-dC), also no binding without competitor, 5% …
[11] = 200 ng poly(dA-dC), 5% glycerol

Question: Which results are given for “TAGACATTGCCCTCGAGGTACCATGGATCCGATGTCGACCTCAAACCGAGACGAATTCCG (double strand) [SL2 unmethylated]”?
Answer: binding result [1, 9]: no binding; binding result ([2]; limited poly(dA-dC) (500 ng per Methods)): binds more weakly; binding result [3, 9]: no binding

Question: Does “GTAGAAGTTCCCGCCATCACTATTG (double strand) [SL4 methylated]” bind [4]?
Answer: Result: no binding

Question: Does “GTAGAAGTTCCCGCCATCACTATTG (double strand) [SL4 methylated]” bind (GST-ZBTB4 zinc fingers)?
Answer: Result: binds

Question: Does “GTAGAAGTTCCCGCCATCACTATTG (double strand) [SL4 methylated]” bind [5]?
Answer: Result: no binding

Question: Which results are given for “CGCGACGACGCACCACGACGCACGACGCGAACGCGCCAA (double strand) [SL3 unmethylated]”?
Answer: binding result [1, 10]: no binding; binding result [6]: no binding; binding result ([2]; 1 ug poly(dA-dC)): no binding; binding result [7]: no binding; binding result [3, 10]: no binding; binding result [8]: no binding

Question: Does “TAGTGCCCTCCGCCATGTACCATGGATCCGATGTACAT (double strand) [SL1 unmethylated]” bind [1, 11]?
Answer: Result: no binding

Question: Does “TAGTGCCCTCCGCCATGTACCATGGATCCGATGTACAT (double strand) [SL1 unmethylated]” bind ([1]; no competitor DNA, 5% glycerol)?
Answer: Result: no binding

Question: Does “TAGTGCCCTCCGCCATGTACCATGGATCCGATGTACAT (double strand) [SL1 unmethylated]” bind ([2]; 200 ng poly(dA-dC))?
Answer: Result: no binding

Question: Does “TAGTGCCCTCCGCCATGTACCATGGATCCGATGTACAT (double strand) [SL1 unmethylated]” bind ([2]; no competitor DNA)?
Answer: Result: binds

Question: Does “TAGTGCCCTCCGCCATGTACCATGGATCCGATGTACAT (double strand) [SL1 unmethylated]” bind [3, 11]?
Answer: Result: no binding

Question: Does “TAGTGCCCTCCGCCATGTACCATGGATCCGATGTACAT (double strand) [SL1 unmethylated]” bind ([3]; no competitor DNA, 5% glycerol)?
Answer: Result: no binding
